A short description of data set [1]: Summary of desirable properties of Av3b mutants relative to Av3b. The arrangement: key: Y = yield; A = activity; S = general stability; D = resistance to proteolytic degradation in fermentation media (fermentation beer); F = similar protein folding relative to Av3b (as determined via circular dichroism); T = thermostable at 54° C.; P = stable under diverse pH conditions; G = stable in insect gut extract.

Experiment in data set [2]: as above
Details: key: Y = yield; A = activity; S = general stability; D = resistance to proteolytic degradation in fermentation beer; F = similar protein folding relative to Av3b (as determined via circular dichroism); T = thermostable at 54° C.; P = stable under diverse pH conditions; G = stable in insect gut extract. To be noted: Table 12: all mutants evaluated.

Setting [3] is: Table 1: at least one novel property relative to Av3b.
Where [4] appears, read: Table 12: all mutants evaluated, relative to Av3b.

These results are taken from patent US20250188136A1, “AV3 MUTANT POLYPEPTIDES FOR PEST CONTROL” (Vestaron Corporation, priority 2021, published 2025).

As to “KSCCPCYWGGCPWGQNCYPEGCGGPK (Av3bM85; VARIANT (1)..(26) Recombinant variant of Anemonia viridis Av3 peptide)”, the Desirable property result in data set [1] (setting [3]) and in data set [1] (setting [4]) was “A” throughout.

As to “HSCCPCYWGGCPWGQNCYPEGCSGPK (Av3bM28; VARIANT (1)..(26) Recombinant variant of Anemonia viridis Av3 peptide)”, the Desirable property result in data set [1] (setting [3]) and in data set [1] (setting [4]) was “Y” in each case.

For the sequence “SSCCPCYWGGCPWGQNCYPEGCSGPT (Av3bM33; VARIANT (1)..(26) Recombinant variant of Anemonia viridis Av3 peptide)”, the Desirable property entry in data set [1] (setting [3]) and in data set [1] (setting [4]) was “Y” in each case.

Turning to “LSCCPCYWGGCPWGQNCYPEGCSGPK (Av3bM40; VARIANT (1)..(26) Recombinant variant of Anemonia viridis Av3 peptide)”, the Desirable property result in data set [1] (setting [3]) and in data set [1] (setting [4]) was “A” each time.

With “KSCCPCYWGGCPWGQNCYPEGCSG (Av3bM164; VARIANT (1)..(24) Recombinant variant of Anemonia viridis Av3 peptide)”, the Desirable property entry in data set [1] (setting [3]) and in data set [1] (setting [4]) was “A” each time.

Turning to “QSCCPCYWGGCPWGQNCYPEGCSGPH (Av3bM30; VARIANT (1)..(26) Recombinant variant of Anemonia viridis Av3 peptide)”, the Desirable property result in data set [1] (setting [3]) and in data set [1] (setting [4]) was “Y” each time.

Consider “VSCCPCYWGGCPWGQNCYPEGCSGPK (Av3bM46; VARIANT (1)..(26) Recombinant variant of Anemonia viridis Av3 peptide)”, for which the Desirable property entry in data set [1] (setting [3]) and in data set [1] (setting [4]) was “A” in each case.

Consider “KSCCPCYWAGCPWGQNCYPEGCSGPK (Av3bM27; VARIANT (1)..(26) Recombinant variant of Anemonia viridis Av3 peptide)”, for which the Desirable property entry in data set [1] (setting [3]) and in data set [1] (setting [4]) was “A” in each case.

For the sequence “NSCCPCYWGGCPWGQNCYPEGCSGPK (Av3bM35; VARIANT (1)..(26) Recombinant variant of Anemonia viridis Av3 peptide)”, the Desirable property result in data set [1] (setting [3]) and in data set [1] (setting [4]) was “Y” each time.

Take “KSCCPCYWGGCPWGQNCYPEGCSGPT (Av3bM111; VARIANT (1)..(26) Recombinant variant of Anemonia viridis Av3 peptide)”: the Desirable property result in data set [1] (setting [3]) and in data set [1] (setting [4]) was “A” throughout.

Consider “KSCCPCYWGGCPWGQNCYPEGCVGPK (Av3bM96; VARIANT (1)..(26) Recombinant variant of Anemonia viridis Av3 peptide)”, for which the Desirable property entry in data set [1] (setting [3]) and in data set [1] (setting [4]) was “A” throughout.

As to “KSCCPCYWGGCPWGQNCYPEGCSGPA (Av3bM97; VARIANT (1)..(26) Recombinant variant of Anemonia viridis Av3 peptide)”, the Desirable property result in data set [1] (setting [3]) and in data set [1] (setting [4]) was “A” throughout.

With “SSCCPCYWGGCPWGQNCYPEGCSGPK (Av3bM32; VARIANT (1)..(26) Recombinant variant of Anemonia viridis Av3 peptide)”, the Desirable property entry in data set [1] (setting [3]) and in data set [1] (setting [4]) was “Y” each time.

On to “ISCCPCYWGGCPWGQNCYPEGCSGPK (Av3bM39; VARIANT (1)..(26) Recombinant variant of Anemonia viridis Av3 peptide)”, for which the Desirable property entry in data set [1] (setting [3]) and in data set [1] (setting [4]) was “A” each time.

For KSCCPCYWGGCPWGQNCYPEGCSGPKG [Av3bM148], the Desirable property entry in data set [1] (setting [3]) and in data set [2] was “D” in each case.

On to “ESCCPCYWGGCPWGQNCYPEGCSGPK (Av3bM37; VARIANT (1)..(26) Recombinant variant of Anemonia viridis Av3 peptide)”, for which the Desirable property entry in data set [1] (setting [3]) and in data set [1] (setting [4]) was “Y” throughout.

With “KSCCPCYWGGCPWGQNCYPEGCSGP (Av3bM163; VARIANT (1)..(25) Recombinant variant of Anemonia viridis Av3 peptide)”, the Desirable property entry in data set [1] (setting [3]) and in data set [1] (setting [4]) was “A” each time.

Regarding “QSCCPCYWGGCPWGQNCYPEGCSGPK (Av3bM29; VARIANT (1)..(26) Recombinant variant of Anemonia viridis Av3 peptide)”, the Desirable property result in data set [1] (setting [3]) and in data set [1] (setting [4]) was “Y” each time.

Regarding “KSCCPCYWGGCPWGQNCYPEGCTGPK (Av3bM93; VARIANT (1)..(26) Recombinant variant of Anemonia viridis Av3 peptide)”, the Desirable property result in data set [1] (setting [3]) and in data set [1] (setting [4]) was “A” throughout.

For “KSCCPCYWPNCPWGQNCYPEGCSGPK (Av3bM5; VARIANT (1)..(26) Recombinant variant of Anemonia viridis Av3 peptide)”, the Desirable property result in data set [1] (setting [3]) and in data set [1] (setting [4]) was “Y” each time.

For the sequence KSCCPCYWGGCPWGQNCYPEGCSGPKVI [Av3bM168], the Desirable property result in data set [1] (setting [3]) and in data set [1] (setting [4]) was “A” in each case.

Take “TSCCPCYWGGCPWGQNCYPEGCSGPK (Av3bM31; VARIANT (1)..(26) Recombinant variant of Anemonia viridis Av3 peptide)”: the Desirable property result in data set [1] (setting [3]) and in data set [1] (setting [4]) was “Y” throughout.

As for “KSCCPCYWGGCPWGQNCYPEGCSGPR (Av3bM98; VARIANT (1)..(26) Recombinant variant of Anemonia viridis Av3 peptide)”, the Desirable property result in data set [1] (setting [3]) and in data set [2] was “D” each time.
